# Assay results as given in patent US20250027127A1, “C[…] BACTERIA” (priority 2021, published 2025).
# Experiment: Temperature and solvent effects on Tcz9 activity
# Format: biochemical
molecule,measurement,setting,value
"Tcz9: berberine bridge enzyme-like (BBE-like) oxidase from Actinomycete sp. AJS-327, SEQ ID NO: 1 (protein) MATPSAFSGSVLTPGDDGFEAAQVTWNACYSSRPREVMVCHDAASVAEAVRSVRERGLPFRVRSGGHSMCGLSNLDDGVIIDLGGLGGVELTPDRQTVRIGGGARLADVYNTLWDHRLTVPAGTCPRIGVGGHVLGGGMGVLSRSRGALVDHLTALEMVDAEGRLLRVSEDENPDLFWACRGGGGGNFGIVTAYELRPTPIDDVTIFTVSWTWSQLPDAVRAWQRWLGSAESRINSFLSLFPQQQDMVVAFGVFDGPAADFRPLLAPLTAEVAPEAEVVEEVPFIQAVDTVEALQGEAAAAEQVRAQGSSAIIANPLNDEALATLQEFLTDPPSHRAEVAVYGMGGVIGERERGDTAFVHRTGLMAFEYRTDWDSPEDDRLNLDWVTRLRHAMAEHTTGAAYVNTIDLALENWLWAYYEENLPRLMAVKRRYDPENVFHHPHSIPGSLTAEAARAHGVPEATLKRLHDDGLLDGPLD",DMSO withstood before activity is significantly affected,"55° C., 8 hours, compound 9",> 20 % DMSO
same,temperature at which production of compound 11 significantly increased,"compared to 25° C., crude cell lysate, compound 9, pH 7.5, 8 hours",55-70 °C
